From paper PMC7075897
Results are given in words; binding and its absence hold for the method and conditions named. In cells and extracts the contact can be indirect. These calls come from enrichment with a bait or labelling near it, and not all partners need be listed. Where a sequence is shown, tags or fusion partners need not be part of it.

Legend:
[1] = molecular target: T1, EcR (isoform A) fused to BioID2 through a 25 nm GS linker, marked with 3xFLAG (Drosophila melanogaster) (UniProt P34021); assay: proximity labelling; BioID2 fused to EcR or Usp, stably expressed in S2 cells; biotin 50 nM, 20E or DMSO for 14 h; nuclear extract, Streptavidin-Agarose precipitation, LC-MS/MS
T1 sequence: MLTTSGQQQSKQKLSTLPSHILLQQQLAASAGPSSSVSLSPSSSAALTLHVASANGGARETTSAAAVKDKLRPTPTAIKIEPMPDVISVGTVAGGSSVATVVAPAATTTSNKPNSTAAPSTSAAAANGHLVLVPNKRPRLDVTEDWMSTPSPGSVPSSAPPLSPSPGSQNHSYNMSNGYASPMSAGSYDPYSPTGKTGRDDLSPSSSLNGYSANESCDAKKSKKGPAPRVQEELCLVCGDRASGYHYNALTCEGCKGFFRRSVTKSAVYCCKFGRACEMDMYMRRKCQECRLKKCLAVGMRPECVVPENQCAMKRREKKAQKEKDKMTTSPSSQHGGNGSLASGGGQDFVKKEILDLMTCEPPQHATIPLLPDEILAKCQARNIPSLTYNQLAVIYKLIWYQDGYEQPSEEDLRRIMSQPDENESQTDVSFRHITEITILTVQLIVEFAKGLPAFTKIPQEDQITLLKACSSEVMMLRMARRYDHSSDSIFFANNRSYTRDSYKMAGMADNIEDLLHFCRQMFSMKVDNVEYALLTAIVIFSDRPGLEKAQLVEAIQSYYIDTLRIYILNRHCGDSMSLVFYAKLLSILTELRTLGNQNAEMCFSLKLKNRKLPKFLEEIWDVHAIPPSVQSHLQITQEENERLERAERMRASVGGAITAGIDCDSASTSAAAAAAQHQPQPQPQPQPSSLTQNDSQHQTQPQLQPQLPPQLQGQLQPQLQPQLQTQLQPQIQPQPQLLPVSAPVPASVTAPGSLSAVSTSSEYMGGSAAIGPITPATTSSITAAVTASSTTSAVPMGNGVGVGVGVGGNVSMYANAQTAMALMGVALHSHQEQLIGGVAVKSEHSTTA

[2] = molecular target: T2, Usp fused to BioID2 through a 25 nm GS linker, marked with 3xFLAG (Drosophila melanogaster) (UniProt P20153); assay: as above
T2 sequence: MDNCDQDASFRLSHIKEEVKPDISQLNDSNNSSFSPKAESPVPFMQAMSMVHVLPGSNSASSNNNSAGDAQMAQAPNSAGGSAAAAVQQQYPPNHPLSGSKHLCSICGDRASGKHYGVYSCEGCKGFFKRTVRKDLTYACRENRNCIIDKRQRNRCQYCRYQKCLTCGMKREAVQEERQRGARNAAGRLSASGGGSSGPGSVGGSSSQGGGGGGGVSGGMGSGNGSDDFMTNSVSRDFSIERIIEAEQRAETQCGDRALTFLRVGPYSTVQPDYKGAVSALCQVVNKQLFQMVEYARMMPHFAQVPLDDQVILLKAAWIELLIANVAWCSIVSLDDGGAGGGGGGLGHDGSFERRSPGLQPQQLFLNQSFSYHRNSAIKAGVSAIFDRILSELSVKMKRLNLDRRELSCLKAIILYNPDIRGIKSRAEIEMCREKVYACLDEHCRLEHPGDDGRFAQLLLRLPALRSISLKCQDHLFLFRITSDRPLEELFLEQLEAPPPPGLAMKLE

[3] = molecular target: T3, Usp fused to APEX2 through a 25 nm GS linker, marked with 3xFLAG (Drosophila melanogaster) (UniProt P20153); assay: proximity labelling; APEX2 fused to EcR or Usp, stably expressed in S2 cells; 20E or DMSO 1 h, biotin-phenol 30 min, 1 mM H2O2 5 min; nuclear extract, Streptavidin-Agarose precipitation, LC-MS/MS
T3 sequence: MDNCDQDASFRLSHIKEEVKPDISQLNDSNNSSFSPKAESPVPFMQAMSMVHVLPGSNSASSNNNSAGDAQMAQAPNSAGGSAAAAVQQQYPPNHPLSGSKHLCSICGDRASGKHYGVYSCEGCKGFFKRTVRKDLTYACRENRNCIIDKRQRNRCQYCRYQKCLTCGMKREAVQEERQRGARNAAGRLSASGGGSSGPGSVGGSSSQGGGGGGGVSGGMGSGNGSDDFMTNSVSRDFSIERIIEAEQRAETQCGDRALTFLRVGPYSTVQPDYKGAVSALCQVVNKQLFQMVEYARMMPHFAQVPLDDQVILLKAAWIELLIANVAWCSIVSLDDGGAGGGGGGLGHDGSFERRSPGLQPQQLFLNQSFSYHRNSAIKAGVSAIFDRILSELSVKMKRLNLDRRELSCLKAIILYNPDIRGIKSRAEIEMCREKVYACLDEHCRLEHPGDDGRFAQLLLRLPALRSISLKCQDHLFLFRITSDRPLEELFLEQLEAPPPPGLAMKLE

[4] = molecular target: T4, EcR (isoform A) fused to APEX2 through a 25 nm GS linker, marked with 3xFLAG (Drosophila melanogaster) (UniProt P34021); assay: as above
T4 sequence: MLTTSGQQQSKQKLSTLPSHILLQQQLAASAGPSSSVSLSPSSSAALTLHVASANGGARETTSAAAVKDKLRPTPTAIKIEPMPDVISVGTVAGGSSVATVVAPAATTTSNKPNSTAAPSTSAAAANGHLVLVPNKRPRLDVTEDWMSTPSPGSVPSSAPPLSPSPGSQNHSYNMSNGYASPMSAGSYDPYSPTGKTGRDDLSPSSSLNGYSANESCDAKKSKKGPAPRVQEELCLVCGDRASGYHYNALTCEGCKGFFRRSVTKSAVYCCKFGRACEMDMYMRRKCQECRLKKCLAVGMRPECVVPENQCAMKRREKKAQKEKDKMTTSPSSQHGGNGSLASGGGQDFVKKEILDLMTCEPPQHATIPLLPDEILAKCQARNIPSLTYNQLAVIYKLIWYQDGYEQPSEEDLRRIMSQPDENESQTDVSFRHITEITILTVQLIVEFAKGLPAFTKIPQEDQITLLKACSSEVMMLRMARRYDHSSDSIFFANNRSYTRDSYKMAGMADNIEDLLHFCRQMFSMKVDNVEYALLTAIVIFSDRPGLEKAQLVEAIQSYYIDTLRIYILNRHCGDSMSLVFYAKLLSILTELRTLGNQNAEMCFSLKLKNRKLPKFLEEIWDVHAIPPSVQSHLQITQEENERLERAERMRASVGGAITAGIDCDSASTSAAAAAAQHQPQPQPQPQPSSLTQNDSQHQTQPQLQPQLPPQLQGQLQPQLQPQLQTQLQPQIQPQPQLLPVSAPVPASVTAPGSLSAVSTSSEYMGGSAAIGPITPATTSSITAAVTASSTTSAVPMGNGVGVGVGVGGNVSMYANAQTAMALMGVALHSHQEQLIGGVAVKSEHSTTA

[5] = molecular target: T1, EcR (isoform A) fused to BioID2 through a 25 nm GS linker, marked with 3xFLAG (Drosophila melanogaster); assay: proximity labelling; BioID2 fusions or BioID2 alone in S2 cells, 20E or DMSO 14 h; streptavidin precipitates of nuclear lysates analysed by western blot
[6] = molecular target: T2, Usp fused to BioID2 through a 25 nm GS linker, marked with 3xFLAG (Drosophila melanogaster); assay: as above

Measured: binding

B1: Nup88 (protein, UniProt Q9GYU8 1-702)
chain: MSLTDVLELNKTELFAKIRNGLPVVQRTQNLLDCKDDLLFAWHAKDSCLLVRNWRSSLAAKVNIQFQTLIPSSLVSLEVDRVLASNEGSLVALSGPRGVVIMELPRRWGPDGYYKDGKPVITCRTFGLDTQLFLKNPHLEVRQVRWHPHSVSDSTLLVLLNNNTIRVYNHSKLRHVWQVGPPVLRSGANNSLCDFGELAVDFDIAPAAKPRVTEPETAGNNETTLDKSNKTLVAAKSLPKQERIEWPMVVLRENGNIYILMTGVDSENTRLQGPVTITPQAHDNYGLESCALMIIPSLPPTIVIAESNGKLHHALLMEAEATEHSFNEVDDSVLIEPAEYVVHVLETVELELGISAPATGKEGGNCPIYLKRDLINELRYFAYHNAGLHAVTVSFIAELQRYLESESDEDRLELAVSASAEYILCTKFDSSETVNAVFGLALLQIPAGIVLLLGSGQVISLKLVIDAQLLVTPNENKPVDSEVSQQESGPPFVDTIKSLLQRSVNQPILADKLSSPSAQESFELLNQAIEVLREQYLKRHDLVRAAFTRHINQIQLKKEQQLQEIQDLEQERELISERAHKLAERFEEISYNQELLVRKCNALMQRANASLPNSVIAEREFSQEVIRLNKVTQSLAAGLETAKKTFNKQRYHIAQSQEDLKKNAYELPEKQHRTITEILTQLTGEIDRQITDVKRINKIVGI
binds: [1] | [2] | [3] | [4]

B2: NELF A (protein, UniProt Q86NP2 1-1251)
chain: MANVRDSDTSLWLHNKLGTSNDSWINGSICSQLNKEVLRNIKECFPDLQTQVKLKLLLSFLHIPRRLVEEWKAELEEVIEVAGLDSELWVSMLAETMKTFPATSSLNTEISDYEDTRPIFIDMVNDLRKLVTKHSDLGMLPLECQYLNKNALISVVGQQPAPVKHFTLKRKPKSAQLRTELLHKSADAQSSLKKASAPTIPLRSRGMPRKMTDTTPLKGIPSRMPTTGFRSATVPGNAAQRPNLSRTPAGRKDGGIKLIEFTEQPLGYAAAKKRKREQQLEEQQKKQEQKQQQAAAAAAAAATAAASNAGDSSPTDAATASGGETPVTPTSANNSFEIKMEPQQLNQSAGSLEEPQDDEMSGKANMECDIETPEYATATLDFAQATSTSVADGQPGKPAVETKLKTPRTPKSAAKLNNNNNNNNNNSFNHTPKRIKQEIEIKSEEIIVPASIKLEKIETSPSTQRVSIQQQPPSLVQRTPHLLIRSSPQKRQNNGATTSAGTTTTTVGNTTIKMEKLDIKPMIRATGVSPSTSAGTTTTLLTPQQLRQAANPLANLPNNISVKITSAKAKAAAAAAATSSGSQTQSQQPQTLQVQQAPQQSHPPLLINSSTPVILASSPSAQRAKALALPSSSTSATTTTTIPSQAIKTMPLSQLKTATNSGPVIISQTIIQPAKRAQQQAGTSSAAAASQQQQQQQSQQQLLHQQIQQQTQQQAQLPQQPQQQQTQYILATPQQQPQQIQQQQQQQQPILPTLTSFSHSRPMPQTTTLYQATTPSGSGQTPTKILLKTSGSSSVVMTPLRQAQPQQATAVVSSNPPPLVATSAAVVSPGQTTLNIQNVQLPNRPVTIQPASQAAQQQHMQAQLQQQQPHPQHTIVANTTATQQPKLSQVLMQPTAAVGTSGVSALNVSPTSGKNKTIILTQKGVILRNIGGDMYQQIPISNVGNMQGLGGTTLMTTTAGPPSLVKTTPSSGVQLQQQQSGKQILPTLIPTSSLGGQHVIVQQQQPTNVIGNSQQQTIIRPVMTNVGGGLTTLPQGLTLIQRPGQQPQLVQVQAAPGSTQRTIITQSNTAAAASQQQPRQQQQQILVQHKPAPTLQQRLVTSTTSGGQGQQGNPNAGLPRTVQVQVQAQQQQQPQQQQATQQQSQQAPQRRGLSLSNEHVHKAHEMFRKANRVSRPDKALILGFMAGLRENPRPNNENVLVIKLGETEEKVQQDNGHTALCLVESHIRLDYNTGEWKTFQNYRLQDQSAAS
binds: [5] | [6] | [1] | [2]

B3: Chromator (protein, UniProt Q8T9D1 1-926)
chain: MLAQEISPTEIGKHANIIRAAQEELANMDVLVCGRCLRAYNFVEEFQAHKEDACEKENANLKESLDPKPTIWAFTLWKATQLHSRKDASGNSWALYQHWVKLDDSVREPWIVAGKTIQSFGKIAHGQLQDMPVRITKTVVNPNNNNTSNSNNNNTSVSPTRKSPTGKLPTLANQLKDTENERPKSKPSTPTPSSVPSAGAVKPNNRIAIRIDSKTDQRTEEPVEKIVAKRFNPRRKTHEYLVKWVDRSHHENTWEVMANLERVPYFLQMFEKQLARQKLTREKGLDALKRMQSSGTNAKSDTASPHSPLPASSQVSPSSRPSRTSKTKAMDAFKQWVNETVAGDGSSSPSSANEDESSTEQEWPPSSGAIKRKLNNTDSSLEGSGLNDSMDLEDLEEDLPSHTVKRLKNGGSSVQLNKPRIQSTEKQQTKINGNSTVVSPLTEQKMGEIIYTEDSTSSGMFRKPEMPNTINLKKEKPECPVRYLSRSEVGSSTRGVFRVENSEAPAPVSPAPVPQKVIAAPPAAGIAKRLPMARPAHSGANSPITVGQRQHALRTPGHGPVTAALHRRPGVGGASHVRQNLQQAPGRAHPGGRVLARAGVGTPQHRQQVQTPQGAKAVTPEQKILQLSKSGDLKVTRKVVTREELLAQRSAQARQRQALSQQQSSQQQKATPARQRIVSKSTIQPTPLQMELEEEIHQHQAQLCPITGKLIGQEETQLQMEQEQQQEQQREQLEAAAQALLGSDQQVLTNEDGSALLVRGEDGTVYQVAGKNAEGQTILVTQGPDGEQQFAYVAAAEGEDQDVLSLDHAVAEAVQAGEQVESHGVGAATADGEQILVSMTEEELAQHQVLQQAEASAAGTGTPPTAQIHITTSDSDGTESQIPAEVVQADLPSPGGTRRVVLLLQDGTFMMTEMHEDQFKTLNIPT
binds: [5] | [6] | [1] | [2]
